HELM strings list residues between dots; [ac] is acetyl, [am] amide, other brackets name non-standard units. [ ]: non-standard residue; d: D form. The star is where a group is joined. Kyn = Nc1ccccc1C(=O)C[C@H](N)C(=O)O; Boc = CC(C)(C)OC(=O)*
Assay: general procedure: solution-phase peptide synthesis; EDC·HCl, HOBt, DIPEA
Settings: for isolated yield: overall
[1] = late stage modification step, analytical RP-HPLC recorded at 254 nm, TFA salt

## Boc-[dA]GF[Kyn]-OMe
Coupling step, TFA salt
  step yield: 84%

## Boc‐Tyr‐DAla‐Gly‐N(Me)Phe‐aminoethanol‐kynurenic acid
Coupling step, from 5, TFA salt
  step yield: 66%

## PEPTIDE1{Y.P.F.[Kyn].[am]}$$$$V2.0
Late stage modification step, from 14, TFA salt
  step yield: 83%
Whole synthesis, TFA salt
  isolated yield: 83%

## PEPTIDE1{Y.P.[Kyn].F.[am]}$$$$V2.0
Late stage modification step, from 10, TFA salt
  step yield: 72%
Whole synthesis, TFA salt
  isolated yield: 72%

## PEPTIDE1{Y.[dA].G.F.[Kyn].[am]}$$$$V2.0
[1]
  final HPLC purity: 96%
Late stage modification step, from 21, TFA salt
  step yield: 52%
Whole synthesis, TFA salt
  isolated yield: 48%

## PEPTIDE1{Y.[dA].G.F.[Kyn]}$$$$V2.0
[1]
  final HPLC purity: 98%
Late stage modification step, from 20, TFA salt
  step yield: 72%
Whole synthesis, TFA salt
  isolated yield: 62%

## PEPTIDE1{Y.[dA].G.[NMePhe].[NHEtO-kyna]}$$$$V2.0
Whole synthesis, 254 nm, TFA salt, run 1
  final HPLC purity: ≥95%
Whole synthesis, 254 nm, TFA salt, run 2
  final HPLC purity: 97.64%
Whole synthesis, TFA salt
  isolated yield: 71%

## TFA.NH2‐Tyr‐DAla‐Gly‐Phe‐Kyn‐OCH3
Whole synthesis, TFA salt
  isolated yield: 62%
